Experimental data from PMC4872741.
Results are given in words; binding and its absence hold for the method and conditions named. Binding seen in cells or lysates may run through a third protein. Some binding calls cover weakened binding; strength is not graded here.

Protein sequences, listed by entry. Tags and fused reporters are not part of them.
UniProt Q16659: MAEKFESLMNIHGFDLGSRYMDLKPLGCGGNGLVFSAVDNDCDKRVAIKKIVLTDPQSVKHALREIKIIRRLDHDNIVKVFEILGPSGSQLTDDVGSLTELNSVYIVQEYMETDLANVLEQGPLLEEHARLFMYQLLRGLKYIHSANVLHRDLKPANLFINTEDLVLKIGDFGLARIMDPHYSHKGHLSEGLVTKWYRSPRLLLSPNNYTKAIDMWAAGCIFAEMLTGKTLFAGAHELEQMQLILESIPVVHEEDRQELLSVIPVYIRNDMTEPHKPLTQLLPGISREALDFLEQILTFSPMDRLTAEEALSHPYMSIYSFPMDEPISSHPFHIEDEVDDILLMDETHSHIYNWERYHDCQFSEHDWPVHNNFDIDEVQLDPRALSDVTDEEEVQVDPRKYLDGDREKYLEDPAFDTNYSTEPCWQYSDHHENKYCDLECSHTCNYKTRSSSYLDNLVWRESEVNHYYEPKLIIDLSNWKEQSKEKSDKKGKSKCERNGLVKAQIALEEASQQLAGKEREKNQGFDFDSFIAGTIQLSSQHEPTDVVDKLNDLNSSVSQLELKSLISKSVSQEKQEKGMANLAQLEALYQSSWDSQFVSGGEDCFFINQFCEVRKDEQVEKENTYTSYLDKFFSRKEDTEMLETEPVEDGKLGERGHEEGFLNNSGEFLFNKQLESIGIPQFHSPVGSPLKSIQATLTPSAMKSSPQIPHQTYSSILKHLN

T1: Tyrosyl DNA phosphodiesterase 2 (TDP2) (human (endogenous in H460)) (UniProt O95551)
T1 sequence: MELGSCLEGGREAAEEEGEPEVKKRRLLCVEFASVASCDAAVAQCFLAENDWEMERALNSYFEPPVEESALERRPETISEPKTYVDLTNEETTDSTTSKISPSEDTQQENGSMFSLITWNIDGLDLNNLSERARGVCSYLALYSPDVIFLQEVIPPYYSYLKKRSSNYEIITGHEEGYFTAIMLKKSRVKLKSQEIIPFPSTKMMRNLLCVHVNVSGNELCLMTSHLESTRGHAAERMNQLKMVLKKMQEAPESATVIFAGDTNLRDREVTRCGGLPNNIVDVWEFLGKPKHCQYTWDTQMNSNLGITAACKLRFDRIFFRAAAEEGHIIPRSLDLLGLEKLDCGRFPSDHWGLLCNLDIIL

B1: Tyrosyl DNA phosphodiesterase 2 (TDP2) (protein, UniProt O95551 1-362)
chain: T1 sequence

Assays:
[1] = biological target: T1, Tyrosyl DNA phosphodiesterase 2 (TDP2) (human (endogenous in H460)); experiment: co-IP; 1 mg H460 total lysate (EBC buffer: 50 mM Tris pH 7.5, 150 mM NaCl, 0.5% NP-40); IP with 2 ug TDP2 antibody, ERK3 antibody or normal rabbit IgG, protein A/G agarose, 4°C; Western blotting
[2] = biological target: Extracellular signal-regulated kinase 3 (ERK3) (human (endogenous in H460)) (UniProt Q16659); experiment: as above

Molecule	binding [1]	binding [2]
Extracellular signal-regulated kinase 3 (ERK3) (from UniProt Q16659 1-721)	binds	–
B1	–	binds
